Record: PubChem BioAssay AID1224826 (NIAID, 2016)
Test: 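Regulators of Tlr4 signalling leading to Tnf-alpha expression in macrophages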 (primary screen). Cell system: RAW264.7 G9 macrophages from mouse bearing reporters for p65 (GFP) and the Tnf promoter (mCherry). Reagent: siRNA pool against mouse genes, 100 nM. Duration: 16 h of LPS stimulation, after 2 days of siRNA transfection. Challenge: bacterial lipopolysaccharide (Salmonella minnesota R595), 10 ng/ml. Measured: 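Nuclear mCherry signal of the Tnf promoter reporter measured by imaging after background removal, scaled to each plate median and turned into robust z-scores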. Direction: Tnf reporter robust z-score: higher = stronger Tnf promoter reporter signal after LPS; Tnf reporter intensity: higher = stronger Tnf promoter reporter signal. Call rule: 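Called active when robust z-score is at most -1.3, matching the median of the Tlr4 knock-down control, or over 3; control wells and wells with under 50 cells never active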. Meaning of the calls: active = Tnf reporter clearly lowered or raised; inactive = no clear change in Tnf reporter.
The whole screen tested about 17,000 reagents; this is a random part of them. In the full data, about 1,110 (6.6%) got an active call. 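Active means lowered or raised reporter signal; replicate intensities are raw and not normalised per plate.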 Unmarked entries are inactive. Some reagents were tested in more than one well and are listed for each. No sequences are given here.

gene | PubChem SID | Tnf reporter robust z-score | fewer than 50 cells in well | Tnf reporter intensity, replicate 1 | Tnf reporter intensity, replicate 2
Pmp22 (peripheral myelin protein 22) | SID315468604 | -0.36 | enough cells in well | 224 | 162
Slc12a8 | SID315477358 | 1.51 | enough cells in well | 176 | 128
Mcoln2 (mucolipin 2) | SID315473491 | -1.06 | enough cells in well | 114 | 99.9
Dio2 (deiodinase, iodothyronine, type II) | SID315466327 | -0.83 | enough cells in well | 138 | 58.1
Dzip1 (DAZ interacting protein 1) | SID315472515 | -0.46 | enough cells in well | 151 | 102
Cnksr2 (connector enhancer of kinase suppressor of Ras 2) | SID315479836 | -0.34 | enough cells in well | 150 | 150
Tcp10a (t-complex protein 10a) | SID315469633 | -0.22 | enough cells in well | 115 | 80.4
Tcp10a (t-complex protein 10a) | SID315469634 | – | fewer than 50 cells per well; well left out of calls | 98.3 | 81.1
Ak4 (adenylate kinase 4) | SID315465368 | -0.55 | enough cells in well | 110 | 126
Ric8a (RIC8 guanine nucleotide exchange factor A) | SID315476279 | 0.41 | enough cells in well | 256 | 193
Fbn2 (fibrillin 2) | SID315466635 | 0.36 | enough cells in well | 253 | 263
Or51k2 (olfactory receptor family 51 subfamily K member 2) | SID315480039 | 0.54 | enough cells in well | 139 | 110
Cpne6 (copine VI) | SID315466097 | 0.05 | enough cells in well | 119 | 180
Or1o11 (olfactory receptor family 1 subfamily O member 11) | SID315480138 | -0.87 | enough cells in well | 147 | 94.5
Tshb (thyroid stimulating hormone, beta subunit) | SID315469848 | -0.04 | enough cells in well | 308 | 75.9
Or8k40 (olfactory receptor family 8 subfamily K member 40) | SID315480486 | -0.87 | enough cells in well | 131 | 108
Gstm2 (glutathione S-transferase, mu 2) | SID315467059 | -0.86 | enough cells in well | 212 | 140
Spint2 (serine protease inhibitor, Kunitz type 2) | SID315469428 | -0.64 | enough cells in well | 193 | 191
Zfp51 (zinc finger protein 51) | SID315470121 | 2.37 | enough cells in well | 223 | 226
Desi2 (desumoylating isopeptidase 2) | SID315475629 | – | fewer than 50 cells per well; well left out of calls | 50.3 | 86.3
Mapkapk3 (mitogen-activated protein kinase-activated protein kinase 3) | SID315476341 | 1.48 | enough cells in well | 167 | 237
Pard6a (par-6 family cell polarity regulator alpha) | SID315471583 | 8.31 (active) | enough cells in well | 595 | 472
Gabrr1 (gamma-aminobutyric acid type A receptor subunit rho 1) | SID315466808 | 0.4 | enough cells in well | 301 | 258
Heatr5a (HEAT repeat containing 5A) | SID315481323 | -1.76 (active) | enough cells in well | 93.2 | 52.4
Ghrl (ghrelin) | SID315471934 | -0.89 | enough cells in well | 191 | 114
Or2ag2 (olfactory receptor family 2 subfamily AG member 2) | SID315480038 | 1.28 | enough cells in well | 140 | 276
Ppp2r5b (protein phosphatase 2, regulatory subunit B', beta) | SID315478439 | 0.83 | enough cells in well | 270 | 286
Kiss1r (KISS1 receptor) | SID315477001 | -0.71 | enough cells in well | 152 | 245
Gm5082 (predicted gene 5082) | SID315481467 | 1.35 | enough cells in well | 272 | 198
Or5aq1 (olfactory receptor family 5 subfamily AQ member 1) | SID315480413 | 1.2 | enough cells in well | 215 | 251
Lsm10 (U7 snRNP-specific Sm-like protein LSM10) | SID315477058 | -1.27 | enough cells in well | 107 | 84.6
Sesn2 (sestrin 2) | SID315478826 | – | fewer than 50 cells per well; well left out of calls | 68 | 67.2
Prkg1 (protein kinase, cGMP-dependent, type I) | SID315468694 | -0.06 | enough cells in well | 178 | 171
Naa20 (N(alpha)-acetyltransferase 20, NatB catalytic subunit) | SID315473281 | -0.03 | enough cells in well | 227 | 103
Mettl27 (methyltransferase like 27) | SID315475683 | -0.71 | enough cells in well | 143 | 172
Braf (B-Raf proto-oncogene, serine/threonine kinase) | SID315476852 | -0.72 | enough cells in well | 170 | 101
Wfs1 (wolframin ER transmembrane glycoprotein) | SID315470031 | 0.09 | enough cells in well | 312 | 200
Epcam (epithelial cell adhesion molecule) | SID315467784 | -0.11 | enough cells in well | 200 | 144
Timm8a1 (translocase of inner mitochondrial membrane 8A1) | SID315470744 | 1.73 | enough cells in well | 360 | 218
Cpox (coproporphyrinogen oxidase) | SID315466098 | 0.2 | enough cells in well | 262 | 205
Trim13 (tripartite motif-containing 13) | SID315472530 | 1.02 | enough cells in well | 273 | 351
Sf3a2 (splicing factor 3a, subunit 2) | SID315469096 | -0.85 | enough cells in well | 55.1 | 70.6
Fam149a (family with sequence similarity 149, member A) | SID315477733 | 0.07 | enough cells in well | 208 | 216
Col5a3 (collagen, type V, alpha 3) | SID315471113 | -0.96 | enough cells in well | 160 | 146
Cdca2 (cell division cycle associated 2) | SID315476758 | 1.53 | enough cells in well | 351 | 115
Tra2b (transformer 2 beta) | SID315469251 | 3.57 (active) | enough cells in well | 101 | 227
Tra2b (transformer 2 beta) | SID315469251 | 0 | enough cells in well | 174 | 127
Rps6 (ribosomal protein S6) | SID315469047 | – | fewer than 50 cells per well; well left out of calls | 71 | 63.8
Abca7 (ATP-binding cassette, sub-family A member 7) | SID315470612 | 0.26 | enough cells in well | 265 | 164
Tsc2 (TSC complex subunit 2) | SID315469845 | 0.5 | enough cells in well | 257 | 283
Umod (uromodulin) | SID315469933 | – | fewer than 50 cells per well; well left out of calls | 87.9 | 53.6
Dgkq (diacylglycerol kinase, theta) | SID315476911 | -0.5 | enough cells in well | 125 | 164
Hnrnpd (heterogeneous nuclear ribonucleoprotein D) | SID315465578 | -1.9 (active) | enough cells in well | 113 | 42.4
Pira6 (paired-Ig-like receptor A6) | SID315468526 | 2.53 | enough cells in well | 276 | 204
Ppp1r42 (protein phosphatase 1, regulatory subunit 42) | SID315473783 | 2.6 | enough cells in well | 394 | 112
Ptprb (protein tyrosine phosphatase receptor type B) | SID315468808 | 0.41 | enough cells in well | 277 | 222
Vmn1r208 (vomeronasal 1 receptor 208) | SID315477327 | 0.38 | enough cells in well | 133 | 102
Clca1 (chloride channel accessory 1) | SID315470196 | -1.5 (active) | enough cells in well | 78.1 | 91.2

Records above whose target name begins with D or d (4):
gene | PubChem SID | Tnf reporter robust z-score | fewer than 50 cells in well | Tnf reporter intensity, replicate 1 | Tnf reporter intensity, replicate 2
Dio2 (deiodinase, iodothyronine, type II) | SID315466327 | -0.83 | enough cells in well | 138 | 58.1
Dzip1 (DAZ interacting protein 1) | SID315472515 | -0.46 | enough cells in well | 151 | 102
Desi2 (desumoylating isopeptidase 2) | SID315475629 | – | fewer than 50 cells per well; well left out of calls | 50.3 | 86.3
Dgkq (diacylglycerol kinase, theta) | SID315476911 | -0.5 | enough cells in well | 125 | 164
